Laboratory results reported in patent publication US20230384333A1 (priority 2020, published 2023).
For at least one compound, name, drawing or mass did not settle the structure.

Assay: Plate reader screening for compound fluorescence (cell-free)
Format: physicochemical
Details: 10 μM, excitation 465 nm, emission 518 nm

For CC(C)C[C@H]1C(=O)N2CCC[C@H]2[C@]2(O)O[C@](NC(=O)[C@@H]3C=C4c5cccc6[nH]c(Br)c(c56)C[C@H]4N(C)C3)(C(C)C)C(=O)N12 [bromocriptine], which “origin of fluorescence signal, cell-free vs PSYLI2 cells” value is on record?
Its value is “due to the inherent fluorescence of these compounds, and not due to activation of the sensor”.
